Measurements as given in the supplement of paper PMC4807443.
Structures can show the parent of a compound that is named as a salt. This is one part of the list. The numbers are fractions of the control, whatever unit the source prints. Most values lie at the level of the controls, where differences are scatter.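 MIN6, a mouse insulinoma beta-cell line, stably carries a lentiviral reporter where Pdx1 and Ins1 promoters each drive a nuclear fluorescent protein; Hoechst staining and automated imaging counted cells. Drugs were candidate hits if Ins1 promoter readout exceeded two median absolute deviations from DMSO controls while Pdx1 activity stayed near normal.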

System: MIN6
Test: % Pdx1+ Ins1-low (RFP-only, immature) cells relative to DMSO control (fold of DMSO control); higher = more immature Pdx1+/Ins1-low cells
Settings: 8.5 µM; 48 h; glucose 5 mM

SMILES	% Pdx1+ Ins1-low
c1ccc2c3c([nH]c2c1)C1C2CCC(C4CCCNC42)N1CC3 (stereo unspecified) [Nitrarine dihydrochloride]	1.07
CC[N+]1(C)C2CCC1CC(OC(=O)C1CCC(C(=O)OC3CC4CCC(C3)[N+]4(C)CC)(c3ccccc3)c3ccccc31)C2 (stereo not drawn) [beta- Belladonnine dichloroethylate]	1.16
COc1ccc(C2CNC(=O)C2)cc1OC1CCCC1 (stereo unspecified) [Rolipram]	0.61
CCOC(=O)Oc1c(OC)cc(C(=O)O[C@@H]2C[C@@H]3CN4CCc5c([nH]c6cc(OC)ccc56)[C@H]4C[C@@H]3[C@H](C(=O)OC)[C@H]2OC)cc1OC [Syrosingopine]	1.15
O=C1OCCN1/N=C/c1ccc([N+](=O)[O-])o1 [Furazolidone]	0.704
O=C1C[C@@H](c2ccc(O)cc2)Oc2cc(O)cc(O)c21 [Naringenine]	1.15
CCC(=O)O[C@]1(C(=O)CCl)[C@@H](C)C[C@H]2[C@@H]3CCC4=CC(=O)C=C[C@]4(C)[C@@]3(F)[C@@H](O)C[C@@]21C [Clobetasol propionate]	1.36
c1ccc([C@H]2CN3CCSC3=N2)cc1 [Levamisole hydrochloride]	1.08
O=S(=O)(O)c1cc(O)ccc1O [Ethamsylate]	0.741
CC1Cc2ccccc2N1NC(=O)c1ccc(Cl)c(S(N)(=O)=O)c1 (stereo unspecified) [Indapamide]	0.762
Nc1ccc(S(=O)(=O)Nc2ccnn2-c2ccccc2)cc1 [Sulfaphenazole]	1.04
O=C(NCC(O)CO)c1c(I)c(C(=O)NCC(O)CO)c(I)c(N(CCO)C(=O)CO)c1I (stereo unspecified) [Ioversol]	0.85
CO/N=C(\C(=O)N[C@@H]1C(=O)N2C(C(=O)O)=C(COC(N)=O)CS[C@H]12)c1ccco1 [Cefuroxime sodium salt]	0.614
Cc1cc(CC(=O)O)n(C)c1C(=O)c1ccc(Cl)cc1 [Zomepirac sodium salt]	0.97
O=C1CC2(CCCC2)CC(=O)N1CCCCN1CCN(c2ncccn2)CC1 [Buspirone hydrochloride]	1.38
CC[C@H]1OC(=O)[C@H](C)[C@@H](O[C@H]2C[C@@](C)(OC)[C@@H](O)[C@H](C)O2)[C@H](C)[C@@H](O[C@@H]2O[C@H](C)C[C@H](N(C)C)[C@H]2O)[C@](C)(O)C[C@@H](C)[C@@H]2N[C@@H](COCCOC)O[C@H]([C@H]2C)[C@]1(C)O [Dirithromycin]	1.26
CC(C)CC(=O)N[C@H](C(=O)N[C@H](C(=O)N[C@@H](CC(C)C)[C@@H](O)CC(=O)N[C@@H](C)C(=O)N[C@@H](CC(C)C)[C@@H](O)CC(=O)O)C(C)C)C(C)C [Pepstatin A]	1.05
C[C@H](O)C(=O)Nc1c(I)c(C(=O)NC(CO)CO)c(I)c(C(=O)NC(CO)CO)c1I [Iopamidol]	0.676

SMILES	% Pdx1+ Ins1-low
CC1=Nc2ccc(Cl)cc2S(=O)(=O)N1 [Diazoxide]	1.1
CC(C(=O)O)c1ccc(N2Cc3ccccc3C2=O)cc1 (stereo unspecified) [Indoprofen]	0.613
CCN1CCN(C(=O)N[C@@H](C(=O)N[C@@H]2C(=O)N3C(C(=O)O)=C(CSc4nnnn4C)CS[C@H]23)c2ccc(O)cc2)C(=O)C1=O [Cefoperazone dihydrate]	0.982
COC(=O)Nc1nc2ccc(SC(C)C)cc2[nH]1 [Methiazole]	1.24
Cc1ccc(Cl)c(Nc2ccccc2C(=O)O)c1Cl [Meclofenamic acid sodium salt monohydrate]	0.971
C[C@H]1C[C@H]2[C@@H]3CCC4=CC(=O)C=C[C@]4(C)[C@@]3(F)[C@@H](O)C[C@]2(C)[C@@]1(O)C(=O)CO [Betamethasone]	1.02
Oc1ccc(OCc2ccccc2)cc1 [Monobenzone]	0.889
O=C(O)/C=C/c1ccc(Cn2ccnc2)cc1 [Ozagrel hydrochloride]	1.1
CCCCNc1ccc(C(=O)OCCOCCOCCOCCOCCOCCOCCOCCOCCOC)cc1 [Benzonatate]	0.564
CCn1nc(C(=O)O)c(=O)c2cc3c(cc21)OCO3 [Cinoxacin]	0.701
O=C(O)COC(=O)Cc1ccccc1Nc1c(Cl)cccc1Cl [Aceclofenac]	0.536
CCN1CCC[C@H]1CNC(=O)c1c(OC)ccc(Br)c1OC [Remoxipride Hydrochloride]	0.863
Cc1nnc(NS(=O)(=O)c2ccc(N)cc2)s1 [Sulfamethizole]	0.806
CC1CC(OC(=O)C(O)c2ccccc2)CC(C)(C)N1C (stereo unspecified) [Eucatropine hydrochloride]	0.858
COc1ccc2c(OC)c3ccoc3nc2c1OC [Skimmianine]	0.94
C1CCN2C[C@@H]3C[C@@H](CN4CCCC[C@@H]34)[C@H]2C1 [Sparteine (-)]	0.978
CC(C)COCC(CN(Cc1ccccc1)c1ccccc1)N1CCCC1 (stereo unspecified) [Bepridil hydrochloride]	0.692
CCOc1ccc2c(c1)C(C)=CC(C)(C)N2 [Ethoxyquin]	1.67

Exported bar-delimited: part of the list above.
SMILES | % Pdx1+ Ins1-low
O=C(O)COC(=O)Cc1ccccc1Nc1c(Cl)cccc1Cl [Aceclofenac] | 0.536
CCN1CCC[C@H]1CNC(=O)c1c(OC)ccc(Br)c1OC [Remoxipride Hydrochloride] | 0.863
Cc1nnc(NS(=O)(=O)c2ccc(N)cc2)s1 [Sulfamethizole] | 0.806
